Some entries share one result that the patent states for a list of compounds.
Columns and labels:
[1] = system: double-stranded DNA (clone w794); test: DNA alkylation of 5′ end-labeled duplex DNA (thermally-induced strand cleavage, PAGE, autoradiography); type: biochemical
Protocol: FIG. 21 illustrates the thermally-induced strand cleavage of double-stranded DNA (144 bp, nucleotide no. 138-5238, clone w794) after 24 h incubation of agent-DNA at 4° C. followed by removal of unbound agent and 30 inutes incubation at 100° C.; denaturing 8% polyacrylamide gel and autoradiography. Lanes 1-4, Sanger G,C,A, and T sequencing reactions; lane 5, control labeled w794 DNA; lanes 6-8, (+)-CPI-indole2 ((+)-4, 1×10^−4-1×10^−6 M); lanes 9-11, (+)-CBI-indole2 ((+)-27, 1×10^−5-1×10^−7 M).
FIG. 22 illustrates the thermally-induced strand clealvage of 5′ end-labeled duplex DNA (clone w794, 144 bp, nucleotide no 138-5238). Incubation of agent-DNA at 25° C. (24 h) followed by removal of unbound agent and 30 min thermolysis at 100° C., denaturing 8% PAGE, and autoradiography. Lanes 1-2, ent-(−)-duocarmycin SA ((−)-2, 1×10^−6 and 1×10^−7 M); lanes 3-5, (+)-duocarmycin SA, ((+)-2, 1×10^−6-1×10^−8 M); lanes 6-9, G, C, A and T sequencing reactions; lane 10, control labeled w794 DNA; lanes 11-13, (+)-CBI-TMI ((+)-29, 1×10^−6-1×10^−8 M); lanes 14-15, ent-(−)-CBI-TMI ((−)-29, 1×10^−5 and 1×10^−6 M). […]

L1210 = test: in vitro cytotoxic activity (L1210); settings: for cytotoxic potency, fold less potent than (+)-CBI-CDPI1 (26): L1210, natural enantiomers

Compound | DNA alkylation efficiency, natural enantiomer relative to unnatural enantiomer [1] | cytotoxic potency, natural enantiomer fold more potent than unnatural enantiomer (L1210) | cytotoxic potency, fold less potent than (+)-CBI-CDPI1 (26) (L1210)
NC(=O)N1CCc2c1ccc1[nH]c(C(=O)N3C[C@H]4CC45C3=CC(=O)c3ccccc35)nc21 (stereo partly drawn) [Compound 64, N^2-[(3′-carbamoyl-1′,2′-dihydro-3′H-pyrrolo[3′,2′-e]benzimidazol-7′-yl)carbonyl]-1,2,9,9a-tetrahydro-cyclopropa-[c]-enz[e]-indol-4-one] | 10-100 × | 10-100 × | 100-200 ×
NC(=O)N1CCc2c1ccc1oc(C(=O)N3C[C@H]4CC45C3=CC(=O)c3ccccc35)nc21 (stereo partly drawn) [Compound 62, CBI-CDPBO1] | 10-100 × | 10-100 × | 100-200 ×

From patent US6548530B1, “CBI analogs of CC-1065 and the duocarmycins” (The Scripps Research Institute, priority 1995, dated 2003)
